{"source": "patent US11273077B2", "about": "“Wound packing material comprising chemoeffector” (priority 2015, dated 2022)", "origin": "cited, not measured here", "system": "Escherichia Coli", "conditions": "Tar and Tsr receptor mediated", "note": "At least one structure is not confirmed: it was looked up by name or label, or the drawing left a doubt.", "data": [{"smiles": "N[C@@H](CC(=O)O)C(=O)O", "note": "[L-aspartate]", "values": [{"measurement": "concentration that induces E. coli chemotaxis", "value": "nanomolar range"}]}]}
